Measured values reported in PubChem BioAssay AID1439 (NMMLSC, 2008).
The campaign covered roughly 220,000 compounds. About 770 (0.35%) were called active. This list was built around the results that the source calls inconclusive (neither active nor inactive); the mix of calls is not that of the screen. No stated cut-off is given here; in the data, active means binding response below about 49% or above about 150%; inconclusive means no clear call, values can overlap the other calls; inactive means in between.

Chains of the proteins cited; added tags and fusions are not shown.
UniProt P09471, whole entry, looked up: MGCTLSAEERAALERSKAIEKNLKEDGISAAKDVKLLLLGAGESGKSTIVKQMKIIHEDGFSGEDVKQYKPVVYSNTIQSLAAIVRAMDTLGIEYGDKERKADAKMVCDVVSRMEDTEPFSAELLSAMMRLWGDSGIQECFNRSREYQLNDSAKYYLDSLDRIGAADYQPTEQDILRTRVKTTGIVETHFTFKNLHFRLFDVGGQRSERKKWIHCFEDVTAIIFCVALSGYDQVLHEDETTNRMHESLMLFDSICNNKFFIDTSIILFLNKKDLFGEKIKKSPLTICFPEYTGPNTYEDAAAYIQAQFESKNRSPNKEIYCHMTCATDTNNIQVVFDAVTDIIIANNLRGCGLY

What follows are compounds tested against Guanine nucleotide-binding protein G(o) subunit alpha (Homo sapiens) (UniProt P09471) (assay: RGS7-Galphao binding modulators, primary screen, biochemical, multiplexed bead flow cytometry (AID 1439;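 further: fluorescent Galphao held in activated GDP-AlF4 state binding bead-coupled RGS7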)). Conditions: at 10 µM, actives lie on both sides.

SMILES	binding response (% of control)
CCOC(=O)C1=C(C)C(c2ccccc2)NC(=S)N1 (stereo unspecified)	inactive: 98.8%
CC(=O)N/C(N)=N/c1nc2cc([N+](=O)[O-])ccc2o1	inconclusive: -147%
COc1ccc(NC(=O)c2[nH]c(C)c(C(C)=O)c2C)cc1S(=O)(=O)Nc1ccc(Br)cc1	inconclusive: 109%
O=C1c2cc(Cl)ccc2OC2(CCNCC2)C12CC(c1ccc(Cl)cc1)=NO2 (stereo unspecified)	inconclusive: 106%
CCOC(=O)c1cc2c(=O)n3ccccc3nc2n(Cc2ccco2)c1=NC(=O)c1ccc(OC)cc1OC	inactive: 96.4%
CCn1c(C)nc2cc(N)ccc21	inconclusive: 96.5%
O=C(Nc1ccccc1Br)C1CCN(C(=O)Cc2ccccc2)CC1	inactive: 96.8%
COC(=O)C(CC(=O)O)NCc1ccco1 (stereo unspecified)	inconclusive: 202%
Cc1nn(CCC(=O)O)c(C)c1C	active: 165% [activator]
O=C(N/N=C\c1ccc(O)c([N+](=O)[O-])c1)C1COc2ccccc2O1 (stereo unspecified)	inconclusive: 107%
CN1CCN(C(=O)c2cn(-c3ccccc3)nc2-c2cccnc2)CC1	inactive: 144%
CCc1ccc(C2CC(=O)N(c3ccc(F)cc3)C3=C2C(=O)OC3)cc1 (stereo unspecified)	inactive: 105%
COc1ccc([N+](=O)[O-])cc1NC(=O)c1ccc(N2C(=O)CCC2=O)cc1	inconclusive: 111%
Fc1ccc2[nH]c3c(c2c1)CN(C(=S)NCc1ccccc1)CC3	inconclusive: 172%
Cc1csc2c(SCC(=O)NNC(=O)C(Cl)Cl)ncnc12	inconclusive: 82.9%
Cc1cccc2cc(CN(Cc3ccccc3)C(=O)c3cccc(F)c3)c(Cl)nc12	inactive: 98.6%
COc1cccc(C(=O)c2c[nH]c(C(=O)NCc3ccco3)c2)c1	inactive: 103%
O=C(NC1CCCCCC1)C(=S)NCc1ccccc1	inconclusive: 75.9%
Cc1cccc(N2CCN(C(=O)C3CCN(S(=O)(=O)N4CCOCC4)CC3)CC2)c1C	inactive: 100%
O=C(NCc1ccco1)c1ccc2snnc2c1	active: 188% [activator]
O=C1CN(C(=O)COC(=O)CCNS(=O)(=O)c2ccc(Cl)cc2)c2ccccc2N1	inconclusive: 101%
Cn1c(CCN2CCCCCC2)nc2cc(NC(=O)Nc3ccccc3)ccc21	inactive: 106%
CCCCOC(=O)c1ccc(NC(=O)c2ccccc2OC)cc1	inactive: 79.1%

SMILES	binding response (% of control)
O=C(NCc1ccncc1)c1nc(-c2ccc(C(F)(F)F)cc2)no1	inconclusive: 99.1%
CC(=O)N/C(=C\c1ccccc1)C(=O)NC(C)C(=O)O (stereo unspecified)	inconclusive: 97%
COc1cccc(N=C(N)N=C(N)N)c1	inconclusive: 95.8%
CN(C)c1ccc2c(c1)Sc1cc(N(C)C)ccc1N2C(=O)c1ccccc1	inconclusive: 112%
CCc1nnc(NC(=O)c2cc(-c3cccnc3)nc3ccccc23)s1	inconclusive: 90.1%
CN(Cc1ccccc1)C(=O)CSc1nnc(-c2ccco2)n1-c1ccccc1	inactive: 97.7%
C=C(C)C(=O)Nc1cccc(C2=NOC3(C2)C[C@H](C(N)=O)N(C(=O)/C=C/C)C3)c1 (stereo partly specified)	inconclusive: 116%
CN=c1scc(-c2cccs2)n1/N=C/c1ccc(O)c(O)c1O	inactive: 92.9%
CCN(CC)CC(=O)Nc1ccc(C)cc1C(=O)c1ccccc1	inconclusive: 116%
O=[N+]([O-])/C(C(Cl)=C(Cl)Cl)=C(/Sc1ccccc1)N1CCCCC1	inconclusive: 139%
S=C(NCc1ccco1)Nc1ccc(Br)cc1Cl	inconclusive: 112%
CN(Cc1ccccc1)C(=O)c1cccc(N2C(=O)NC3CC2(C)Oc2ccccc23)c1 (stereo unspecified)	inactive: 102%
CCOc1cc(-c2nc(C)c(C(C)=O)n2O)ccc1OCC(=O)Nc1ccccc1	inactive: 102%
COc1ccc(CNC(=O)C2CSC(c3ccc(OC)cc3)N2C(C)=O)cc1 (stereo unspecified)	active: 217% [activator]
O=C(CC1C(=O)NCCN1Cc1ccc(-c2ccccc2)cc1)NCCCn1ccnc1 (stereo unspecified)	inconclusive: 58.8%
CC(=O)c1cccc(NC(=S)Nc2ccn(Cc3cccc4ccccc34)n2)c1	inconclusive: 85.7%
CS(=O)(=O)c1cnc(-c2cccnc2)nc1N	inactive: 101%
CN1CCC(=O)N(CCSc2ccc(Br)cc2)CC1	inconclusive: 118%
Cc1nc(C(=O)N2CCOCC2)sc1C1(C)CC(c2ccccc2)=NO1 (stereo unspecified)	inconclusive: 105%
CS(=O)(=O)NCC(c1cccnc1)N1CCN(c2ccccc2F)CC1 (stereo unspecified)	inconclusive: 610%
O=c1[nH]c(=O)n(Cc2ccco2)c2c1C(C(F)(F)F)(C(F)(F)F)N=C(c1ccc(F)cc1)N2	inactive: 104%
Nc1c([N+](=O)[O-])cc(-c2cnc[nH]2)cc1[N+](=O)[O-]	inconclusive: 84.8%
CCS(=O)(=O)N1CCN(c2ccnc3cc(Cl)ccc23)CC1	inconclusive: 113%

SMILES	binding response (% of control)
Cc1ccc(Cl)cc1NC(=S)N(Cc1ccccc1)Cc1cccnc1	inconclusive: 100%
CCc1ccc(NC(=O)Nc2cccs2)cc1	active: -10.8%
O=C(O)c1cc(N/N=C/C=C/c2ccccc2[N+](=O)[O-])ccc1Cl	inconclusive: 118%
CC(=O)Oc1ccc(OC(C)=O)c2c1CC(C)=C(C)C2	inconclusive: 117%
CC(=O)Cn1c(CN2CCCCC2)nc2ccccc2c1=O	inconclusive: 97.3%
O=C(Nc1ccccc1F)c1cc2c(s1)-c1ccccc1S(=O)(=O)C2	inconclusive: 80.9%
Cc1ccc2oc(=O)c(/C=C(\O)c3ccco3)nc2c1	inconclusive: 135%
Cc1onc(-c2c(F)cccc2Cl)c1C(=O)Nc1nccs1	inconclusive: 112%
COc1ccc(CC(=O)Nc2cccc(-c3ccc4nncn4n3)c2)cc1OC	inconclusive: 85.1%
COc1ccc(/C=C/C(=O)NC(=S)Nc2ccc(S(N)(=O)=O)cc2)cc1	inconclusive: 110%
CC(=O)c1ccccc1NCC(=O)Nc1ccc(C)cc1	inactive: 94.7%
COc1cccc(C2CC(C(F)(F)F)n3nc(C(=O)Nc4c(C)n(C)n(-c5ccccc5)c4=O)cc3N2)c1 (stereo unspecified)	inconclusive: 91.4%
N#CC1=C(N)NC(=S)C(C(N)=O)C1c1ccc(Cl)cc1Cl (stereo unspecified)	inconclusive: 91.8%
O=C(CCl)Nc1cccc(S(=O)(=O)NC2=NCCC2)c1	inconclusive: 86.5%
C=CCOC(=O)/C(=C/c1cccnc1)NC(=O)c1ccccc1	inconclusive: 108%
CCOC(=O)c1cc(-c2ccccc2)nc2ccc(C)cc12	inconclusive: -4.68%
COC(=O)Cc1ccc(NC(=S)NCc2cccc(OC)c2)cc1	inconclusive: 106%
O=C(CSc1nncs1)NCc1ccc(F)cc1	inconclusive: 96.7%
Cc1ccc(Cl)cc1N1CCN(C(=O)c2cc3c(=O)[nH]c4ccccc4c3n2C)CC1	inactive: 93.2%
CC1CCN(CC(=O)Nc2ccc(N3CCCCCC3)cc2)CC1	inactive: 103%
O=C(O)COc1ccccc1/C=N/NC(=O)Cc1csc(Nc2cccc(C(F)(F)F)c2)n1	inconclusive: -60.4%
CCOc1ncccc1C(=O)Nc1ccc(F)cc1	inconclusive: 87.4%
C=CCn1c(SC)nnc1-c1ccc2ncccc2c1	inconclusive: 102%

Some of the entries so far, with each value named.
CCn1c(C)nc2cc(N)ccc21
  binding response (% of control): inconclusive: 96.5%
CC(=O)N/C(=C\c1ccccc1)C(=O)NC(C)C(=O)O (stereo unspecified)
  binding response (% of control): inconclusive: 97%
CS(=O)(=O)c1cnc(-c2cccnc2)nc1N
  binding response (% of control): inactive: 101%
CS(=O)(=O)NCC(c1cccnc1)N1CCN(c2ccccc2F)CC1 (stereo unspecified)
  binding response (% of control): inconclusive: 610%

Continued:

SMILES	binding response (% of control)
c1cncc(CNc2ncn[nH]2)c1	inconclusive: 82.4%
Oc1cccc2ccc(/C=C/c3c(F)cccc3Cl)nc12	inconclusive: 92%
CC(C)C(=O)Nc1nnc(SCC(=O)Nc2ccc3c(c2)OCCO3)s1	inconclusive: 153%
CCCCCC(=O)Nc1ncc2c(n1)CC(c1cccs1)CC2=O (stereo unspecified)	inconclusive: 273%
CC(C)Cc1nc2oc3c(Cl)ncnc3c2c2c1CCCC2	inconclusive: 101%
Cc1nc2ccccc2nc1OCC(=O)Nc1cc(C(F)(F)F)ccc1N1CCOCC1	inactive: 101%
Oc1ccc(Nc2nc3ccccc3nc2Nc2ccc(O)cc2)cc1	active: 161% [activator]
CCCCSCCCNC(=O)Nc1ccc(CC)cc1	inactive: 102%
O=C(NC(NC(=S)Nc1ccc(Cl)cc1Cl)C(Cl)(Cl)Cl)c1cccc([N+](=O)[O-])c1 (stereo unspecified)	inactive: 96.8%
CCC(=O)Nc1cccc(C2=NOC3(C2)C[C@@H](C(N)=O)N(C(=O)COc2ccc(Cl)cc2)C3)c1 (stereo partly specified)	inconclusive: 101%
Cc1ccc(NC(=O)COC(=O)c2ccc3c(c2)OCO3)c(C)c1	inconclusive: 160%
Cn1c(=O)c2c(nc(N3CCc4ccccc4C3)n2C)n(C)c1=O	inactive: 97.3%
CCOc1nsc(OCC)n1	inconclusive: 111%
Cc1ccccc1-n1c(=O)n(CCc2ccccc2)c(=O)c2[nH]cnc21	inconclusive: 27.4%
O=C(CN1C(=O)C2CC=CCC2C1=O)OCc1cc(=O)n2cc(Br)ccc2n1 (stereo unspecified)	inconclusive: 103%
CC(=O)Nc1ccc([C@H]2[C@H](C)CC[C@H]3C(=O)N4[C@@H](CC[C@@H](C)[C@@H]4c4ccc(NC(C)=O)cc4)C(=O)N32)cc1	inactive: 103%
CCCCCCCCS(=O)C1CS(=O)(=O)CC1O (stereo unspecified)	inconclusive: 69.4%
Cc1oc2ccc(O)c(CN(C)C)c2c1C(=O)c1ccccc1	inactive: 122%
CCCCN(CCCC)C(=O)c1sc2nc(N3CCOCC3)c3c(c2c1N)CCCC3	inconclusive: 80.6%
Cc1cc(C)cc(NC(=S)NCCN(C2CCCCC2)C2CCCC2)c1	inactive: 106%
NC(=O)NC(=O)COC(=O)CCCSc1nc2ccccc2s1	inconclusive: 523%
CCOc1ccc(-c2nc(S(=O)(=O)c3ccccc3)c(N3CCOCC3)o2)cc1	inconclusive: 104%
